The values below come from article PMC7819943, “Rice protein-binding microarrays: a tool to detect cis-acting elements near promoter regions in rice”.

This is one part of the list.

In the test the target is T1, OsSMF1 (Oryza sativa, UniProt Q6ZLB0 1-436).
T1 sequence: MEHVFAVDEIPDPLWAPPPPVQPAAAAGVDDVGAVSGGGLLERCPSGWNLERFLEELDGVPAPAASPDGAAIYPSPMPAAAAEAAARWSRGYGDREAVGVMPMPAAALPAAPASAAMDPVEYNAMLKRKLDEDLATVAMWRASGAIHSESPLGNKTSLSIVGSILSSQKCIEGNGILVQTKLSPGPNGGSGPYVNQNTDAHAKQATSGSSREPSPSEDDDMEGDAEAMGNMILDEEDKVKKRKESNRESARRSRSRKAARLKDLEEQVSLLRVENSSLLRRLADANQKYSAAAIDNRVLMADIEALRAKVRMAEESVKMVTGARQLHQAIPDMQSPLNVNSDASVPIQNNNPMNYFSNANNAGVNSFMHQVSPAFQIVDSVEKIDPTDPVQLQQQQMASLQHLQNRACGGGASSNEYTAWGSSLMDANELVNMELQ
Kind of test: protein-binding microarray (RPBM); PBS, 2% BSA, 51.3 ng/ul salmon testes DNA, 50 uM zinc acetate, 200 nM TF, 25 C, 1 h; high values mean tight binding. To be noted: protein: recombinant; tags: N-terminal polyhistidine and DsRed monomer fusion (pET32a); chain copies: 2; label: CyDye5-dUTP incorporated in the synthesized complementary strand; 3' TTTTT single-stranded linker to array surface; dsDNA, one strand shown. In short, it runs like this:
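Ni–NTA purification followed expression in E. coli BL21-CodonPlus of transcription factors fused N-terminally to a polyhistidine tag and DsRed. At 200 nM in PBS with 2% BSA, salmon testes DNA and 50 µM zinc acetate, the protein was incubated for 1 h at 25 °C with a custom Agilent array that had been primer-extended with Cy5-dUTP and blocked with 2% BSA. After washing, the array was read on an Axon 4000B scanner. The binding signal is per-feature fluorescence intensity in arbitrary units.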
For “CGACGACGGGGAACATGGGTGACGGCAGGAGCGGCGGTGTCGGAGTCACCTAGTGCAG”, the binding signal is 3470 fluorescence intensity (a.u.).
For “ATTACTTGTTTCATCCATATTGGGTCACTGTAATTTTCCTCGGAGTCACCTAGTGCAG”, the binding signal is 3730 fluorescence intensity (a.u.).
With “CGTCGAACCGCCCACGCGTCCCCTTTGCTGATGTGCTCGCCGGAGTCACCTAGTGCAG” the figure was 26800 fluorescence intensity (a.u.).
With “CTGATCCTTCTCTTCCTCCTCCTCGTCGTCATCCTTCTTGCGGAGTCACCTAGTGCAG” the figure was 4190 fluorescence intensity (a.u.); with “TAGCACTATGCTGCCCACTTCGAGCTCGAGGTACACGTCACGGAGTCACCTAGTGCAG”, 8890 fluorescence intensity (a.u.).
The same measure for “CGCCCGGAGCGGGCCGACCACCACCACCGCCACCTCGCAGCGGAGTCACCTAGTGCAG”: 4250 fluorescence intensity (a.u.); for “TGTGGTGGCGAGCGGCACGGAGGCGGGGCGGTGGAGGGAGCGGAGTCACCTAGTGCAG”: 3980 fluorescence intensity (a.u.); for “GAGGAGCTCTGTACCAATAAAGACAACGTGGCAGCTATTCCGGAGTCACCTAGTGCAG”: 8220 fluorescence intensity (a.u.).
On to “TCGATCCCCACCTCCGACGCGGCGATCCCCACCGCCATCGCGGAGTCACCTAGTGCAG”, for which the binding signal was 4310 fluorescence intensity (a.u.).
With “AAAATTGTTCAAAGGATGGCGTAACTTTGGCGTGGAATTACGGAGTCACCTAGTGCAG” the figure was 3180 fluorescence intensity (a.u.).
With “CTAGCAGTAGCTTAGCTAGGCAGGGAGGGCACAAGCAGCACGGAGTCACCTAGTGCAG”, the binding signal was 3230 fluorescence intensity (a.u.).
With “GCCATGCCATAAATAGTGATGTGGCTGTATTCAAACATACCGGAGTCACCTAGTGCAG”, the binding signal is 5740 fluorescence intensity (a.u.).
Take “TCGATCACTCGACCGTTGGACACATACGCGCGCGTGGCGTCGGAGTCACCTAGTGCAG”: the binding signal was 4050 fluorescence intensity (a.u.).
With “AAAGGAAAATGGAAGGGCCCTACTTATGGCATCACAGGTACGGAGTCACCTAGTGCAG” the figure was 4190 fluorescence intensity (a.u.); with “AAATAGAAAGCCCAAACGGATATTTCTTCCTGAGAGCCACCGGAGTCACCTAGTGCAG”, 35600 fluorescence intensity (a.u.); with “TCTTGATCGTACCACTTATACGAAGGATGATCCTCCATGTCGGAGTCACCTAGTGCAG”, 3270 fluorescence intensity (a.u.).
Take “GATGGTGGCTTCAATTCGCCACTACATCCACGTATGACATCGGAGTCACCTAGTGCAG”: the binding signal was 9480 fluorescence intensity (a.u.).
With “ATGCGGTCACGCCACGCCACGCCATGCCATACTCGAATCGCGGAGTCACCTAGTGCAG”, the binding signal is 8130 fluorescence intensity (a.u.).
The same measure for “GCCGAACCACACCACCGGCGTGACGTCGACGCCGCCGAGCCGGAGTCACCTAGTGCAG”: 9780 fluorescence intensity (a.u.); for “GTACAATATATATGATGAATGATCGATGTGTCCGACGTGTCGGAGTCACCTAGTGCAG”: 7730 fluorescence intensity (a.u.).
With “GTGCCAATAGTACGCACACACGTGTCATTAGTATAAATTCCGGAGTCACCTAGTGCAG”, the binding signal was 11000 fluorescence intensity (a.u.).
For “TATACCGACTGCTTGCACATGTGGCGACAATGTAACCGTCCGGAGTCACCTAGTGCAG”, the binding signal was 5790 fluorescence intensity (a.u.).
The same measure for “ATCCAATATACAAAGGTAGTGTGCTCCTGCCTCCGCGTGGCGGAGTCACCTAGTGCAG”: 3380 fluorescence intensity (a.u.); for “TCCGTACTCATTTGTCACGACGGACGTGTAGTGACGTCACCGGAGTCACCTAGTGCAG”: 21200 fluorescence intensity (a.u.); for “GCTATATATTTGTTGATCAGCTAGGCTGTCAGCAGTTTAGCGGAGTCACCTAGTGCAG”: 3650 fluorescence intensity (a.u.).
For “TTATATTAGGACTTGGGAGTTGGGACACGTATGTTTTATGCGGAGTCACCTAGTGCAG”, the binding signal was 3990 fluorescence intensity (a.u.).
With “CCGTATAGGTCCAGCTAATATGGGCTAGTCACATAGGATGCGGAGTCACCTAGTGCAG” the figure was 3720 fluorescence intensity (a.u.).
With “AAAGGCTGCACGAGCCACTTGTATTACGTTGTCATTCCTTCGGAGTCACCTAGTGCAG” the figure was 4010 fluorescence intensity (a.u.); with “GCGGGGTTCGTGGTGTGTGCGTGTGCGTCTCTCTCTGTCTCGGAGTCACCTAGTGCAG”, 5200 fluorescence intensity (a.u.); with “GCTACACGAGCGAGCATGGTTGCATGAGTCATGAGTGCAACGGAGTCACCTAGTGCAG”, 3780 fluorescence intensity (a.u.).
With “CCACAACGGCGGCCTTCCTCCCCTACACCGGCAATGGCAACGGAGTCACCTAGTGCAG” the figure was 3670 fluorescence intensity (a.u.); with “GATACGAATACAAGTATGATGTCATGGTTTCCACTGGATACGGAGTCACCTAGTGCAG”, 11000 fluorescence intensity (a.u.).
Turning to “ATGAACGAGAGGTTCTTAACCGAAGAATGCAACCTTCGAACGGAGTCACCTAGTGCAG”, the binding signal is 3180 fluorescence intensity (a.u.).
Turning to “GGGTTTTGGAGTGGTGGTGGTGGAGGATTGGAGTTGGGGTCGGAGTCACCTAGTGCAG”, the binding signal was 3790 fluorescence intensity (a.u.).
With “GTTGCAGGGTGTACCACGTGGCCCTGTCCACCTTGCTGTTCGGAGTCACCTAGTGCAG” the figure was 7030 fluorescence intensity (a.u.).
For the sequence “TTTGTTATGAAAACTTGGTTTCCTTTCATATTCCGCGTATCGGAGTCACCTAGTGCAG”, the binding signal was 3410 fluorescence intensity (a.u.).
Regarding “TTGTTGGGTGCTGAATTGCTGATGTGGTGGGGTGACATGACGGAGTCACCTAGTGCAG”, the binding signal is 10100 fluorescence intensity (a.u.).
With “CGTGCGCAAGGCGTGTTTCTTCGGAGTTCGGATCACACGTCGGAGTCACCTAGTGCAG” the figure was 3280 fluorescence intensity (a.u.).
As to “CCGTAGTGGTTGACAGGTGGACCCGATCCTATATGTCAGCCGGAGTCACCTAGTGCAG”, the binding signal was 3720 fluorescence intensity (a.u.).
As for “GATGGGAGTAGAGGGGAGTGAGGTGGAAGAAGATTGTTGGCGGAGTCACCTAGTGCAG”, the binding signal was 4440 fluorescence intensity (a.u.).
The same measure for “TGCTAATTTTATCCCGTGACTATCGTGCAGTAACGGAATTCGGAGTCACCTAGTGCAG”: 4330 fluorescence intensity (a.u.); for “TCGCCACCGCGGCGCCCGGCTGCTGTTCCATGACTGCGCCCGGAGTCACCTAGTGCAG”: 3550 fluorescence intensity (a.u.).
